Here are results for one sequence from article PMC9599297, “Graphitic Carbon Nitride and IGZO Bio-FET for Rapid Diagnosis of Myocardial Infarction”.

For at least one entry, the source does not settle the construct or the ends of the probe. Weaker means in comparison with the reference protein, sequence or condition of that experiment. Protein sequences can lack the tags named with them.

This series concerns the target T1, myoglobin (UniProt P02144).
T1 sequence (looked up, limits assumed): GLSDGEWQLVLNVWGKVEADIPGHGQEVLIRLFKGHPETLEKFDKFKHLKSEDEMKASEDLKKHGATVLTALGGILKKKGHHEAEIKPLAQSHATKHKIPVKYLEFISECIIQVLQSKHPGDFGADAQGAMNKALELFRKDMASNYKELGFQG
Nature of the series: FET aptasensor (IGZO/PCN-Au NPs), drain current change. To be noted: selectivity test, noticeably weaker than cTnI, interference <5%; ThiC6 (thiol-C6) at 5' end, immobilised on Au NPs; 10 mM PBS pH 7.4 (PBS tablets: 2.7 mM KCl, 137 mM NaCl), 10 min incubation, water wash; surface blocked with MCH and 0.10 mg/mL BSA; temperature not stated; commercial protein; single-stranded DNA.

In the case of “CGTGCAGTACGCCAACCTTTCTCATGCGCTGCCCCTTA [Tro4 anti-cTnI DNA aptamer]”, the binding result is “binds more weakly”.
